# Results published in PubChem BioAssay AID2685 (National Center for Advancing Translational Sciences (NCATS), 2010).
# The whole screen tested about 320,000 compounds, of which about 2,100 (0.66%) were called active. The inconclusive results got no clear call from the source; some entries with a clear call stand among them for comparison. Calls follow the shape of the dose curve; as a rule, active = well fitted inhibition curve with a large enough effect in the signal ratio, with a control signal flat (not every such curve was filed as active); inconclusive = small, poorly fitted or top-dose-only effect, or effect the other way, or a change in a side signal; inactive = flat fitted curve, though single readings scatter; the % refers to the signal ratio. Potencies beside an inconclusive call are fits to weak or partial responses and may not hold up.
# Assay: qHTS Assay for Lipid Storage Modulators in Drosophila S3 Cells
# Details: BODIPY lipid droplet fluorescence, 18-24 h, cells fed with added oleic acid; lipid storage change, negative = inhibition: at 46.1 µM (top of the series) unless noted
# Outline: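 Drosophila S3 cells got compounds at several concentrations plus oleic acid (400 uM solution). Laser-scanning cytometry with 488 nm excitation read lipid droplets at 500-530 nm and cells at 575-640 nm. Percent activity was relative to 20 uM Triacsin C.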
# % is scaled to controls: 0 for no effect and ±100 for the full control effect; potency is read from the fitted curve at half-maximal effect.
SMILES,"lipid storage change, negative = inhibition",Potency,outcome
COc1ccc(CC(=O)NCc2ccc(Cl)cc2)cc1S(=O)(=O)N1CCOCC1,inconclusive: -11.8%,–,–
CC(C)(C)c1ccc(OCc2cnc(Cl)s2)cc1,inconclusive: -31.4%,–,–
COc1ccc(-n2nc3c(c2NC(=O)c2ccc(N4C(=O)CCC4=O)cc2)CSC3)cc1,inconclusive: 7.36%,–,–
COc1ccccc1OCC(=O)Nc1ccc(S(=O)(=O)N2CCCCCC2)cc1,inconclusive: -27.8%,–,–
Cc1ccc(C)n1-c1cccc(NC(=O)c2ccccc2)c1,–,"inconclusive: 13 µM [activator, partial curve]",–
COC(=O)/C(=C\Nc1ccccc1)NC(=O)c1ccc(Cl)cc1Cl,–,"inconclusive: 29.1 µM [rising, single point]",–
Cc1ccc(-n2nnnc2-c2nc3ccccc3s2)cc1,inconclusive: 41.8%,–,–
Cc1ccc(-n2c(COc3cccc(C)c3)n[nH]c2=S)cc1,inconclusive: 17.5%,–,–
Cc1ccccc1CNC(=O)C1CCC(=O)N(C2CCCCCC2)C1 (centres undefined),inconclusive: 27.9%,–,–
COc1ccc(OC)c(NC(=O)CN2CCC(C(=O)c3ccc(C)cc3)CC2)c1,–,"inconclusive: 4.11 µM [activator, full curve]",–
O=C(O)c1ccc(N2CCCC2=O)cc1,inconclusive: -5.48%,–,–
CCN(CC)S(=O)(=O)c1ccc2c(c1)c(=O)c(C(=O)NCCc1ccc(OC)c(OC)c1)cn2C,inconclusive: 105%,–,–
O=C(Nc1cnc2ccccn2c1=O)c1ccc(F)cc1,inconclusive: 31.8%,–,–
CCn1c(SCC(=O)NCC2CCCO2)nc2cc(S(=O)(=O)N3CCCCC3)ccc21 (centres undefined),–,"inconclusive: 18.4 µM [activator, single point]",–
COc1ccc(C(C)=O)cc1CSCC(=O)O,inconclusive: -21.3%,–,–
O=C(NCCCN1CCCC1=O)[C@H](CSCc1ccccc1)N1Cc2ccccc2C1=O,inconclusive: 11.2%,–,–
Cn1ncc(Br)c1C(=O)N/N=C/c1cccc(OC2CSC2)c1,inconclusive: 15.1%,–,–
Cc1cc([N+](=O)[O-])nn1Cc1noc(C(=O)NCCCn2ccnc2)n1,–,"inconclusive: 0.92 µM [falling, full curve]",–
CCn1c(SCC(=O)NC2CC2)nnc1-c1ccc(C)cc1,inconclusive: 7.22%,–,–
O=C(COc1ccccc1C(=O)c1cnn(-c2ccccc2)c1)Nc1ccc2ccccc2c1,inconclusive: -6.93%,–,–

# Entries of single compounds, looked up by structure. Values in the order: lipid storage change, negative = inhibition | Potency | outcome
# COc1ccccc1OCC(=O)Nc1ccc(S(=O)(=O)N2CCCCCC2)cc1 reads inconclusive: -27.8% | – | –
# COc1ccc(CC(=O)NCc2ccc(Cl)cc2)cc1S(=O)(=O)N1CCOCC1 reads inconclusive: -11.8% | – | –

# The results go on.

SMILES,"lipid storage change, negative = inhibition",Potency,outcome
c1cncc(CNc2nc(N3CCOCC3)nc(N3CCOCC3)n2)c1,–,"inconclusive: 25.9 µM [falling, partial curve]",–
CCN1CCc2nc(NC(=O)c3ccc(S(=O)(=O)N(C)C)cc3)sc2C1,–,–,inactive [at 46.1 µM]
CCCCc1nc2ccccc2c(=O)n1NC(=O)c1c(O)c2c(n(CC(C)C)c1=O)CCCC2,–,"inconclusive: 29.1 µM [activator, single point]",–
Cn1c(CSc2ncn[nH]2)nc2ccccc21,inconclusive: -31.2%,–,–
CCCCn1c(=O)[nH]c(=O)c2c1nc(-c1ccc(OCC)cc1)n2CC,inactive: 13.4%,–,–
Cn1nnnc1SCC1=C(C(=O)O)N2C(=O)C(NC(=O)Cn3nc(C(F)F)cc3C3CC3)C2SC1 (centres undefined),inconclusive: -4.18%,–,–
O=C(Nc1nccs1)c1ccc([N+](=O)[O-])cc1,inconclusive: 2.46%,–,–
COc1ccc(CNC2CC(=O)N(C)C2=O)cc1 (centres undefined),–,"inconclusive: 6.51 µM [falling, single point]",–
O=C(COc1ccc(-c2ccccc2)cc1)NNC(=O)Nc1ccccc1,inconclusive: 18.7%,–,–
CCN(c1ccccc1)S(=O)(=O)c1cccc(C(=O)NCCN2CCOCC2)c1,–,"inconclusive: 3.66 µM [activator, single point]",–
O=C1c2ccccc2-c2c1cccc2C(=O)N(CCO)CCO,–,active: 25.9 µM,–
Cn1cc(C(=O)NC2CCCCC2)c(=O)c2cc(S(=O)(=O)N3CCCC3)ccc21,–,"inconclusive: 2.31 µM [activator, single point]",–
CCCC(C(=O)NCC1CCCO1)N(Cc1ccco1)C(=O)CNS(=O)(=O)c1ccccc1 (centres undefined),inconclusive: 118%,–,–
CCOC(=O)C(C)(C)N(Cc1cccc(C)c1)S(=O)(=O)c1cccc([N+](=O)[O-])c1,inactive: -28.1%,–,–
COc1ccc(N2C(=O)C3CCCN3C2c2cccc(OC)c2OC)cc1 (centres undefined),inconclusive: 8.56%,–,–
CCC(C)[C@H](NC(=O)[C@@H]1Cc2ccccc2CN1)C(=O)NCc1ccc(OC)cc1 (some centres undefined),inconclusive: -11%,–,–
Fc1cccc(CNc2ncnc3ccc(-c4ccc5c(c4)OCO5)cc23)c1,inconclusive: -40.5%,–,–
Cc1ccc(C(=O)N/C(=C\c2cccs2)C(=O)NCC2CCCO2)cc1C (centres undefined),inconclusive: 179%,–,–
CCc1nnc(NC(=O)CCC(=O)Nc2ccccc2)s1,–,"inconclusive: 0.291 µM [falling, partial curve, poor fit]",–
